{"sequences": {"note": "Protein sequences, listed by entry. Tags and fused reporters are not part of them.", "UniProt P20081": "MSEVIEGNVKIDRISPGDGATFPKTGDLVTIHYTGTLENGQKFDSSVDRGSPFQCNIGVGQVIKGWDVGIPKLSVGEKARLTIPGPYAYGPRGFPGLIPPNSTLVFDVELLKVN"}, "source": "paper PMC7357790", "key": {"[1]": {"molecular_target": "T1, Rap1 (repressor/activator site binding protein 1), recombinant (S. cerevisiae) (UniProt P11938)", "T1 sequence": "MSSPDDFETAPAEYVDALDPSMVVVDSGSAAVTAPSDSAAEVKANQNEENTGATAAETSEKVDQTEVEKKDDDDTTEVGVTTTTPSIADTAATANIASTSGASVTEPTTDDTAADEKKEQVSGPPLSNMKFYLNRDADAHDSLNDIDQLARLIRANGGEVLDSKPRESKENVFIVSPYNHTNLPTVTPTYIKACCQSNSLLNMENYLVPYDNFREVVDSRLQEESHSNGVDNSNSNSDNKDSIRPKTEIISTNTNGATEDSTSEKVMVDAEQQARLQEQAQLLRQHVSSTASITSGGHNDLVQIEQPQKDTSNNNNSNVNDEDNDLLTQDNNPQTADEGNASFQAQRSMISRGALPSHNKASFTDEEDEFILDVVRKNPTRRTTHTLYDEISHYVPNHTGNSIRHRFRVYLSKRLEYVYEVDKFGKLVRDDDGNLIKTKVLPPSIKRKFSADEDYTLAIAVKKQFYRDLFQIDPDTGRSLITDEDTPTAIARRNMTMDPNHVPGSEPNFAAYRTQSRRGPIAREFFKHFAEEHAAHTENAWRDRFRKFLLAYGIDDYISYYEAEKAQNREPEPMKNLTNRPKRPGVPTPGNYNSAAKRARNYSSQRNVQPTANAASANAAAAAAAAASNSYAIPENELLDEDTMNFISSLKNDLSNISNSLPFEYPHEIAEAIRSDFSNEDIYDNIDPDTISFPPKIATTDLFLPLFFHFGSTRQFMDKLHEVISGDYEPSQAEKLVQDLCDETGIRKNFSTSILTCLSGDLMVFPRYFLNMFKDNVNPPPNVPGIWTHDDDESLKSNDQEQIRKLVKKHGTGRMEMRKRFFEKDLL", "test": "pull-down; Ni-pulldown assay in vitro with recombinant Rap1 and Fpr1 proteins; no data shown, no methods given"}, "[2]": {"molecular_target": "T2, Rap1, two-hybrid fusion (S. cerevisiae) (UniProt P11938)", "T2 sequence": "T1 sequence", "test": "two-hybrid; two-hybrid assay in vivo; no data shown, no methods given"}}, "note": "These are yes or no findings as the source states them, for the method shown. For some assays here: Binding seen in cells or lysates may run through a third protein. For some assays here: Tags and fused reporters may be left off the sequences shown.", "data": [{"substance": "Fpr1 (FK506-sensitive proline rotamase 1), recombinant (from UniProt P20081 1-114)", "values": [{"measurement": "binding", "setting": "[1]", "result": "no binding"}]}, {"substance": "Fpr1, two-hybrid fusion (from UniProt P20081 1-114)", "values": [{"measurement": "binding", "setting": "[2]", "result": "no binding"}]}]}
